# Measured values from the supplement of paper PMC10849652.
# The chains behind the UniProt entries cited, without tags or fusion partners. Where a name states a change or a piece, a line headed by the entry shows the natural chain unless it says otherwise.
# UniProt Q9UIW2: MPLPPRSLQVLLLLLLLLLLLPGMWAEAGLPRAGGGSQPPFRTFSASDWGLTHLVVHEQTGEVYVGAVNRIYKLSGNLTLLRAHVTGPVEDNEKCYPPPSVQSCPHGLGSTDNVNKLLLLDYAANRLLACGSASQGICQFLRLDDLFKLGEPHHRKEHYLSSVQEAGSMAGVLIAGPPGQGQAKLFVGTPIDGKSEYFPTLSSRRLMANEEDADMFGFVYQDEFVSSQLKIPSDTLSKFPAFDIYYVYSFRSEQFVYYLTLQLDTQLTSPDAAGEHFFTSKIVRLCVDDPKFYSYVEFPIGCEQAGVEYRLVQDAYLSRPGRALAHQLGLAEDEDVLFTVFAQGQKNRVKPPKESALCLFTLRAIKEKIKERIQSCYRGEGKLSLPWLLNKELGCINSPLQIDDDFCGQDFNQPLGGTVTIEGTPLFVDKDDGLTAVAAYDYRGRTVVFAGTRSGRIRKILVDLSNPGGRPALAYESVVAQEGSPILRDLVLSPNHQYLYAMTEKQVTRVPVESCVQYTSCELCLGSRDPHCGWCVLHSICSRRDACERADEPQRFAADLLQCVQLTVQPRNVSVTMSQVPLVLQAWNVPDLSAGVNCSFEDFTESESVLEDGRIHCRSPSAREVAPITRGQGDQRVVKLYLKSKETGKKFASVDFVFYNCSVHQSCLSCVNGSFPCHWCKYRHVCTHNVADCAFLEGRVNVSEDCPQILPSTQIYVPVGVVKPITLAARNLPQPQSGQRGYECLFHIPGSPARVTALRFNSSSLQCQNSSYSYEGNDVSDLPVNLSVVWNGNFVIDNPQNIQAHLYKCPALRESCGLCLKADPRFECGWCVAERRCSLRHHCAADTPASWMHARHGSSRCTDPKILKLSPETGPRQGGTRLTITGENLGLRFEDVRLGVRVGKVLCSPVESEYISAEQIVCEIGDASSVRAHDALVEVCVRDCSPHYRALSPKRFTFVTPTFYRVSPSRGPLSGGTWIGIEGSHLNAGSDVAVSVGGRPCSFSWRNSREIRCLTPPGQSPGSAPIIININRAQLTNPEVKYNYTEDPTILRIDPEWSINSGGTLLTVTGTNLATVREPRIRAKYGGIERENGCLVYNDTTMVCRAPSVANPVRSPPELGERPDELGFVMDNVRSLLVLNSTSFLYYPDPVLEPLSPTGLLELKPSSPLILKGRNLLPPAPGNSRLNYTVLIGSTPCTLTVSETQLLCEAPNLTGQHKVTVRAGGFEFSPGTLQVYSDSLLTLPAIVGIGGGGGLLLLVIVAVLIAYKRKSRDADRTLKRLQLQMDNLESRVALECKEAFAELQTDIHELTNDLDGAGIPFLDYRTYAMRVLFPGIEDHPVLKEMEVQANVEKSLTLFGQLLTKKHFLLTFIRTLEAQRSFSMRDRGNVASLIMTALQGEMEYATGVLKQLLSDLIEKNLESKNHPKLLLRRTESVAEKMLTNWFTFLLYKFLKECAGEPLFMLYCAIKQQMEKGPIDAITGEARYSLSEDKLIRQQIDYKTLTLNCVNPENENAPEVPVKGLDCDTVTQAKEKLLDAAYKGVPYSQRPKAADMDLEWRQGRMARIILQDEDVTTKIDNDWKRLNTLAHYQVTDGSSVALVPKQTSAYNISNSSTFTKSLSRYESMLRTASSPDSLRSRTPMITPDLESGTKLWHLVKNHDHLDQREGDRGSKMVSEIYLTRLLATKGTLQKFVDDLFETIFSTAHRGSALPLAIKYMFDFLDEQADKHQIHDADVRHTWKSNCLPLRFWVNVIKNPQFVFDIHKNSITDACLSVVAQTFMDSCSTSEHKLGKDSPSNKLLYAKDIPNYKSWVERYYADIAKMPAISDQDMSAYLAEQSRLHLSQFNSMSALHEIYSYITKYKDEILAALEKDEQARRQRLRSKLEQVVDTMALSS
# UniProt Q6PFW1: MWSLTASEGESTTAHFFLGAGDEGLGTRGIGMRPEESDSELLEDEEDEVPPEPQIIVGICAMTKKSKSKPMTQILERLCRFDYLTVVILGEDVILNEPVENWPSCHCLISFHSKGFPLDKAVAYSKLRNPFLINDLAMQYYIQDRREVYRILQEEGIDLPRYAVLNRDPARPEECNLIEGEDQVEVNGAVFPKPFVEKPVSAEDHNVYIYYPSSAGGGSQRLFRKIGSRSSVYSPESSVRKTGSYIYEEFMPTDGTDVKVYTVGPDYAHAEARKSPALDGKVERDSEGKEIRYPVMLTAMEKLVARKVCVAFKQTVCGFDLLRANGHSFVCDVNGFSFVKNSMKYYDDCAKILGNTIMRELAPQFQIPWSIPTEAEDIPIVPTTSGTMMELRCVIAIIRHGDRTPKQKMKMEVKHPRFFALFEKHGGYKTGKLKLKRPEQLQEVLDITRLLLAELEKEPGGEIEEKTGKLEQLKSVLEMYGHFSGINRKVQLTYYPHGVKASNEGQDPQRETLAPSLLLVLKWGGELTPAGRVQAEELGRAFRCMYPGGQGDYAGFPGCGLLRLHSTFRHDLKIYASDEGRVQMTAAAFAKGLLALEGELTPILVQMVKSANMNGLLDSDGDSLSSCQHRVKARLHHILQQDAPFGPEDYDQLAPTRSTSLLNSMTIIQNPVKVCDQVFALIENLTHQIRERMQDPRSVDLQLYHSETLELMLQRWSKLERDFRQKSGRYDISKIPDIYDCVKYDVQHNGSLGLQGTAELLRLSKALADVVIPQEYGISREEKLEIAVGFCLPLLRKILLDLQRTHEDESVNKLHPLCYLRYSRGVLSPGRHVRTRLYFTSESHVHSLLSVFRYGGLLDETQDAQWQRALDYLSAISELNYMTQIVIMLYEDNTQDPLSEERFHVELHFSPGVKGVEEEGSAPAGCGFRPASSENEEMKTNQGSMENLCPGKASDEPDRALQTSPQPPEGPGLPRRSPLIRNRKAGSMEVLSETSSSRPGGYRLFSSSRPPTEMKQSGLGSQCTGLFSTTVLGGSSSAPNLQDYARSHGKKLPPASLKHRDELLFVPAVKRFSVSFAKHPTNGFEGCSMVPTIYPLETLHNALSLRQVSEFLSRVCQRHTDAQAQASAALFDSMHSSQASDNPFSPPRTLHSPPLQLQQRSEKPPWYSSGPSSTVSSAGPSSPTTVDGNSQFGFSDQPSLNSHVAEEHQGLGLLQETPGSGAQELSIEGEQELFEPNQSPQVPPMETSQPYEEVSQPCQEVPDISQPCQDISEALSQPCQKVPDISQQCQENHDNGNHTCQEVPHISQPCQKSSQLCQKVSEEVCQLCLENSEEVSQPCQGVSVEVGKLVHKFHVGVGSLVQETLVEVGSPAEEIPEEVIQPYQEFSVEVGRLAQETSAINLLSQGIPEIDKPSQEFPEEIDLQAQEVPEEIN
# UniProt Q9NRF9: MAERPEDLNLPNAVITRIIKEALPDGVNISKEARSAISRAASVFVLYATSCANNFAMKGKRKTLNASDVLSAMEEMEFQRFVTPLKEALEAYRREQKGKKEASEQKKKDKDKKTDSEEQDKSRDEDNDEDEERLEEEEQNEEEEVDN
# UniProt P41247: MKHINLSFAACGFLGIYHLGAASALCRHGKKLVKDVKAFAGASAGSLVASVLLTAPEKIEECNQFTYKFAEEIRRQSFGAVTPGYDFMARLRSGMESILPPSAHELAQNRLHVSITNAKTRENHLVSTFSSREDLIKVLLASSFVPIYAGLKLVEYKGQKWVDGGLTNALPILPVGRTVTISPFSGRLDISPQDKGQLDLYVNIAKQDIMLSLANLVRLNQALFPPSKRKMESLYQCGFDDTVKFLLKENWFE
# UniProt O60664: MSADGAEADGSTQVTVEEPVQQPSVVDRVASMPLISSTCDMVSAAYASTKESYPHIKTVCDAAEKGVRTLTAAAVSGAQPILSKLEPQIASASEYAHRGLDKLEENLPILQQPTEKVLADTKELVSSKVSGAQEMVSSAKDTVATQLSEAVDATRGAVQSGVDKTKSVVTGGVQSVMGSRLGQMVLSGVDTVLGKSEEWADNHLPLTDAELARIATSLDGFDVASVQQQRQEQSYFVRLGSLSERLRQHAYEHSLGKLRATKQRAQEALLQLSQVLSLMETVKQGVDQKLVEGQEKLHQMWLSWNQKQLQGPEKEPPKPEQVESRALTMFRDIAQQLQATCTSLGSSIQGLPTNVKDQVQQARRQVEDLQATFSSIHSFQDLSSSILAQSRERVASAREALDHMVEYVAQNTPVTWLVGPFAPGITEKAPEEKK
# UniProt Q9H307: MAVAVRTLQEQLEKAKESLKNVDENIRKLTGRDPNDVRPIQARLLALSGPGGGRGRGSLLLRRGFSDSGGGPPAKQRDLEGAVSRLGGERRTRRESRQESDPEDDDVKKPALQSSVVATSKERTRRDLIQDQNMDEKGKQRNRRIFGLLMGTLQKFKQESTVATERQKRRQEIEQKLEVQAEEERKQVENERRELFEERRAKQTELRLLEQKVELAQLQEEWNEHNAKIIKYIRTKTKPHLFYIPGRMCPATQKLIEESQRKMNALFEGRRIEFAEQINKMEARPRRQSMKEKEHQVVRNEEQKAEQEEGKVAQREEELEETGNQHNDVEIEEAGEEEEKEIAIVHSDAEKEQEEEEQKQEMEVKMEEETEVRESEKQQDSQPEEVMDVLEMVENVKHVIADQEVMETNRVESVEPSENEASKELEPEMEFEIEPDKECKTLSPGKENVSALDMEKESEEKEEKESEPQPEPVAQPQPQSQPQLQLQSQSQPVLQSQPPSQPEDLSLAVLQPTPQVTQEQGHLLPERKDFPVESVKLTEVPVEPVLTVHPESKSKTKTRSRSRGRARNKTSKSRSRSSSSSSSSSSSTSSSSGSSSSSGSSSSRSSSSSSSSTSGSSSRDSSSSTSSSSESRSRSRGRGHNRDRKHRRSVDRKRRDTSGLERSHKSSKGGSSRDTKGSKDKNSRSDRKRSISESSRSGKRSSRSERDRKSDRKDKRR
# UniProt Q9HAB8: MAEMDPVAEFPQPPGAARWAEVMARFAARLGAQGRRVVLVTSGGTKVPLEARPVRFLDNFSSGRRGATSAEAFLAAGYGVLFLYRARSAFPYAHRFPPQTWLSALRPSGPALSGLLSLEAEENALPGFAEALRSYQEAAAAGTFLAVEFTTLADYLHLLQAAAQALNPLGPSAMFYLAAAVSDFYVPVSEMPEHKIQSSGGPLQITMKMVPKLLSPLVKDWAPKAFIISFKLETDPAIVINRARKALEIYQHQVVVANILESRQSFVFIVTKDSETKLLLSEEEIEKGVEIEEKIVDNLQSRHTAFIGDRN
# UniProt Q9Y535: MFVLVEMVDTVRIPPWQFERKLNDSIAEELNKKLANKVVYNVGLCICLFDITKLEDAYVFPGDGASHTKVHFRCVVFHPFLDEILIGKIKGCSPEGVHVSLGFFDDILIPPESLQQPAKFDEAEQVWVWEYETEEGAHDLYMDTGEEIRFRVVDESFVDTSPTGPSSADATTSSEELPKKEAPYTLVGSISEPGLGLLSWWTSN
# UniProt Q9H9Y6, whole entry, looked up: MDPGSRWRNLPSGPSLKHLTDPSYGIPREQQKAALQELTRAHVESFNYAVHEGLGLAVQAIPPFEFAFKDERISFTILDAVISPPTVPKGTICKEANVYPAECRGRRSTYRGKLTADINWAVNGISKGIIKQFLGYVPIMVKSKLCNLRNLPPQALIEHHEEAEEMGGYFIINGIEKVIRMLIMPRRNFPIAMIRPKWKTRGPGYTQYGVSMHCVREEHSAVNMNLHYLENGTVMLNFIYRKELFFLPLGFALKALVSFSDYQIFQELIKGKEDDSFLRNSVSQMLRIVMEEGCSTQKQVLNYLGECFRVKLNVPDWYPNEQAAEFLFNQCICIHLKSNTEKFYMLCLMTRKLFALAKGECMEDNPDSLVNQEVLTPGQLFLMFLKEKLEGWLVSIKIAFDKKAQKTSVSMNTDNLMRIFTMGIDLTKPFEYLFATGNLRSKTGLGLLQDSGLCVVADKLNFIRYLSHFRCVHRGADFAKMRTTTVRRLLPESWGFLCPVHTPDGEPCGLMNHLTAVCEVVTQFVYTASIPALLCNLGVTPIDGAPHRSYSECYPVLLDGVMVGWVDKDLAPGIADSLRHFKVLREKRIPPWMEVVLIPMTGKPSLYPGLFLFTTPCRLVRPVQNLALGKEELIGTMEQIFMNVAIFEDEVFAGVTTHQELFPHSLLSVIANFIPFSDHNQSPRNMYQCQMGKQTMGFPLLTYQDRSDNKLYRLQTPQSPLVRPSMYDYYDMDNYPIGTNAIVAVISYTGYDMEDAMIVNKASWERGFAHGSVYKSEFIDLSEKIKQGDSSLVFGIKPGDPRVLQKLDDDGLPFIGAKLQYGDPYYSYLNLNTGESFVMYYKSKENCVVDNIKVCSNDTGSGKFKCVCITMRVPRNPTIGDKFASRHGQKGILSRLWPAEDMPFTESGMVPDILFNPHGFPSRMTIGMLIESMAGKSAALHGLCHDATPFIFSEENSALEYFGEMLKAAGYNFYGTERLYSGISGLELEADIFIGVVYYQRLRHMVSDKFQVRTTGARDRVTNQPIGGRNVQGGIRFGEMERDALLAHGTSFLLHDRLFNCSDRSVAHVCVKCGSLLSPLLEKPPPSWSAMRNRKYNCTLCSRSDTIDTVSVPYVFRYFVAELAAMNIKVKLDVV
# This is one part of the list.
# Columns and labels:
# Experiment in all cases: log2 fold change, soluble protein after heating vs DMSO (PISA); higher = thermal stabilisation; K562 cells, 10 uM, 30 min; active = over 0.2 and 3.5 SD of the protein, either way, in both replicates (recomputed)
# [1] = compound: NC(=O)Nc1cc(-c2cccc(F)c2)sc1C(=O)N[C@H]1CCCNC1
# Outline: (§1)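 Soluble protein was defined as the supernatant after 21,000xg for 90 min. It came from K562 cells at 2×10^6 cells/mL given 10 μM compound for 30 min, heated in aliquots for 3 min across 48°C-58°C, pooled, and extracted in PBS with 0.5% NP-40 at 4°C, and was quantified by TMTpro 16plex LC-MS/MS with equalised channel sums. Thermal stability against control samples, from duplicates, is reported as log2 fold change.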
# [2] = compound: NC(=O)c1cnc(N[C@@H]2CCCC[C@@H]2N)nc1Nc1cccc(-n2nccn2)c1
# Outline: as §1
# [3] = compound: NC1(c2ccc(-c3nc4ccn5c(=O)[nH]nc5c4cc3-c3ccccc3)cc2)CCC1
# Outline: as §1
# [4] = compound: NCC(=O)Nc1ccc(-n2nc(C(F)(F)F)cc2-c2ccc3c(ccc4ccccc43)c2)cc1
# Outline: as §1
# entinostat = compound: Nc1ccccc1NC(=O)c1ccc(CNC(=O)OCc2cccnc2)cc1 [entinostat]
# Outline: as §1
# vorinostat = compound: O=C(CCCCCCC(=O)Nc1ccccc1)NO [vorinostat]
# Outline: as §1
# citarinostat = compound: O=C(CCCCCCNC(=O)c1cnc(N(c2ccccc2)c2ccccc2Cl)nc1)NO [citarinostat]
# Outline: as §1
# silmitasertib = compound: O=C(O)c1ccc2c(c1)nc(Nc1cccc(Cl)c1)c1ccncc12 [silmitasertib]
# Outline: as §1
# [5] = compound: O=C1NC(=O)C(c2cnc3ccccn23)=C1c1cn2c3c(cc(F)cc13)CN(C(=O)N1CCCCC1)CC2
# Outline: as §1
# [6] = compound: c1cc(OCCN2CCCCC2)cc(-c2n[nH]c3ccc(-c4nnc[nH]4)cc23)c1
# Outline: as §1
# entospletinib = compound: c1cn2cc(-c3ccc4cn[nH]c4c3)nc(Nc3ccc(N4CCOCC4)cc3)c2n1 [entospletinib]
# Outline: as §1
Target,log2 fold change [1],log2 fold change [2],log2 fold change [3],log2 fold change [4],log2 fold change (entinostat),log2 fold change (vorinostat),log2 fold change (citarinostat),log2 fold change (silmitasertib),log2 fold change [5],log2 fold change [6],log2 fold change (entospletinib)
PLXNA1 (UniProt Q9UIW2),inactive: -0.102,inactive: 0.007,inactive: -0.041,inactive: -0.055,inactive: -0.018,inactive: -0.027,inactive: -0.007,inactive: -0.041,inactive: -0.024,inactive: -0.059,inactive: -0.004
POTEF (UniProt A5A3E0),inactive: -0.017,inactive: -0.006,inactive: 0.026,inactive: 0,inactive: -0.008,inactive: -0.028,inactive: -0.004,inactive: 0.037,inactive: -0.079,inactive: -0.034,inactive: -0.018
POLDIP3 (UniProt Q9BY77),inactive: 0.023,inactive: 0.038,inactive: -0.014,inactive: 0,inactive: -0.038,inactive: 0.033,inactive: 0.002,inactive: 0.039,inactive: 0.21,inactive: -0.004,inactive: -0.061
PPFIA2 (UniProt O75334),inactive: 0.068,inactive: -0.152,inactive: 0.102,inactive: 0.084,inactive: -0.016,inactive: -0.005,inactive: 0.216,inactive: -0.009,inactive: 0.188,inactive: -0.143,inactive: 0.04
POLR1C (UniProt O15160),inactive: -0.023,inactive: -0.041,inactive: 0.008,inactive: 0.041,inactive: 0.069,inactive: 0.036,inactive: 0.041,inactive: 0.122,inactive: 0.055,inactive: -0.101,inactive: 0.083
POLR3E (UniProt Q9NVU0),inactive: -0.05,inactive: -0.075,inactive: 0.013,inactive: -0.052,inactive: 0.032,inactive: 0.203,inactive: 0.085,inactive: 0.135,inactive: -0.051,inactive: -0.031,inactive: 0.107
POFUT2 (UniProt Q9Y2G5),inactive: -0.013,inactive: 0.001,inactive: -0.052,inactive: 0.033,inactive: 0.024,inactive: -0.052,inactive: 0.014,inactive: 0.011,inactive: 0,inactive: -0.049,inactive: 0
POR (UniProt P16435),inactive: -0.036,inactive: 0.011,inactive: -0.031,inactive: -0.034,inactive: -0.005,inactive: -0.01,inactive: 0.032,inactive: 0.01,inactive: -0.039,inactive: -0.044,inactive: -0.032
PNKD isoform 2 (UniProt Q8N490),inactive: -0.047,inactive: -0.083,inactive: 0.049,inactive: -0.016,inactive: -0.031,inactive: 0.025,inactive: 0.062,inactive: -0.166,inactive: -0.178,inactive: 0.016,inactive: -0.01
PPIP5K1 (UniProt Q6PFW1),inactive: -0.029,inactive: -0.027,inactive: -0.02,inactive: 0.036,inactive: -0.03,inactive: -0.004,inactive: 0.033,inactive: -0.005,inactive: -0.034,inactive: -0.011,inactive: 0.015
PPFIA1 (UniProt Q13136),inactive: -0.047,inactive: -0.034,inactive: -0.059,inactive: -0.142,inactive: 0.006,inactive: 0.025,inactive: -0.082,inactive: 0.127,inactive: 0.038,inactive: -0.012,inactive: -0.121
PPM1A isoform 3 (UniProt P35813),inactive: -0.081,inactive: -0.003,inactive: -0.133,inactive: -0.033,inactive: -0.02,inactive: 0.029,inactive: 0.008,inactive: -0.029,inactive: -0.125,inactive: 0.013,inactive: 0.011
POLE3 (UniProt Q9NRF9),inactive: 0.015,inactive: -0.001,inactive: -0.045,inactive: -0.091,inactive: 0,inactive: -0.04,inactive: 0.019,inactive: -0.014,inactive: -0.062,inactive: 0.245,inactive: -0.078
PPA2 (UniProt Q9H2U2),inactive: -0.023,inactive: -0.013,inactive: -0.055,inactive: -0.029,inactive: -0.002,inactive: -0.017,inactive: 0.041,inactive: -0.025,inactive: -0.037,inactive: -0.032,inactive: 0.033
POLR2L (UniProt P62875),inactive: -0.082,inactive: 0.036,inactive: -0.15,inactive: -0.133,inactive: 0.07,inactive: -0.165,inactive: -0.113,inactive: 0.056,inactive: -0.052,inactive: -0.074,inactive: 0.164
PNPLA4 (UniProt P41247),inactive: 0,inactive: -0.118,inactive: -0.357,inactive: 0.131,inactive: -0.093,–,inactive: 0.602,inactive: 0.012,–,inactive: -0.071,–
PLIN3 isoform 2 (UniProt O60664),inactive: -0.402,inactive: -0.308,inactive: -0.271,–,inactive: -0.191,–,inactive: -0.206,inactive: 0.297,inactive: -0.516,inactive: -0.068,inactive: 0.256
PPIL3 isoform 2 (UniProt Q9H2H8),inactive: 0.106,inactive: -0.089,–,inactive: 0.043,inactive: 0.071,inactive: 0.029,inactive: 0.19,–,inactive: -0.136,inactive: -0.151,inactive: 0.098
PNMT (UniProt P11086),inactive: 0.331,inactive: -0.04,–,–,inactive: -0.018,–,–,–,–,–,–

Target,log2 fold change [1],log2 fold change [2],log2 fold change [3],log2 fold change [4],log2 fold change (entinostat),log2 fold change (vorinostat),log2 fold change (citarinostat),log2 fold change (silmitasertib),log2 fold change [5],log2 fold change [6],log2 fold change (entospletinib)
PLS1 (UniProt Q14651),inactive: -0.046,inactive: -0.053,inactive: -0.114,inactive: -0.064,inactive: -0.008,inactive: 0.037,inactive: -0.034,inactive: 0.041,inactive: -0.024,inactive: -0.01,inactive: 0.07
PLXNA3 (UniProt P51805),inactive: 0.003,inactive: -0.213,inactive: -0.087,–,inactive: -0.036,inactive: 0.072,–,inactive: 0.049,inactive: -0.209,–,–
PPIP5K2 (UniProt H0Y9S9),inactive: 0.041,–,inactive: 0.057,–,inactive: -0.002,–,inactive: 0.038,inactive: 0.083,inactive: -0.017,inactive: 0.032,inactive: 0.163
PLXNB1 (UniProt O43157),inactive: -0.216,inactive: -0.045,–,–,inactive: -0.105,–,–,–,inactive: 0.071,–,–
PNN (UniProt Q9H307),inactive: -0.018,inactive: -0.24,inactive: 0.053,–,inactive: 0.021,inactive: 0.045,inactive: -0.077,inactive: -0.124,inactive: 0.106,active: -0.446,–
POLR2M (UniProt Q6EEV4),inactive: 0.027,inactive: -0.09,inactive: -0.065,inactive: -0.056,inactive: -0.148,–,inactive: 0.029,inactive: 0.03,inactive: -0.122,inactive: -0.009,–
POMGNT2 (UniProt Q8NAT1),inactive: 0.005,inactive: 0.123,inactive: -0.078,inactive: 0.025,inactive: 0.038,inactive: -0.019,–,inactive: 0.075,–,–,–
POLR3D (UniProt P05423),inactive: -0.061,active: 1.51,inactive: -0.115,inactive: -0.028,inactive: 0.03,inactive: 0.158,–,inactive: 0.078,inactive: 0.032,–,–
PMS2 (UniProt P54278),inactive: -0.072,inactive: -0.296,–,inactive: -0.156,inactive: 0.015,–,inactive: -0.186,–,inactive: -0.141,inactive: 0.241,inactive: -0.137
POLR1D (UniProt P0DPB6),inactive: -0.021,inactive: -0.057,inactive: 0.01,inactive: -0.09,inactive: 0.136,–,inactive: -0.013,inactive: 0.06,inactive: 0.092,inactive: 0.014,inactive: -0.016
PLG (UniProt P00747),inactive: -0.075,inactive: -0.062,–,inactive: 0.151,inactive: -0.025,inactive: -0.008,–,–,–,–,–
PPCS (UniProt Q9HAB8),inactive: -0.038,inactive: -0.034,inactive: -0.06,inactive: -0.042,inactive: 0.012,inactive: -0.034,inactive: 0.021,inactive: -0.001,inactive: -0.086,inactive: -0.024,inactive: 0.021
PPIC (UniProt P45877),inactive: 0.012,inactive: -0.001,inactive: -0.091,–,inactive: 0.019,inactive: -0.238,inactive: 0.033,inactive: 0.036,inactive: -0.044,inactive: 0.065,inactive: -0.037
POGZ (UniProt Q7Z3K3),inactive: 0.009,inactive: 0.167,–,inactive: -0.028,inactive: -0.031,inactive: -0.186,inactive: -0.206,–,inactive: -0.114,active: -0.483,–
POLR3H (UniProt Q9Y535),inactive: 0.068,inactive: -0.118,inactive: -0.073,inactive: -0.018,inactive: -0.009,inactive: 0.117,–,inactive: 0.013,inactive: 0.079,–,–
POLR1D (UniProt P0DPB5),inactive: -0.014,inactive: 0.045,–,–,inactive: -0.084,inactive: -0.064,inactive: -0.05,–,inactive: 0.12,inactive: 0.056,inactive: 0.032
POLG (UniProt P54098),inactive: -0.078,inactive: -0.231,inactive: -0.106,inactive: -0.184,inactive: 0.021,inactive: -0.105,–,inactive: 0.025,inactive: 0.097,–,–
POLR1B isoform 3 (UniProt Q9H9Y6),inactive: 0.05,–,inactive: 0.1,inactive: 0.031,inactive: -0.058,inactive: 0.131,–,inactive: 0.007,inactive: -0.07,–,–
POLR2C (UniProt P19387),inactive: -0.046,inactive: -0.026,inactive: -0.131,inactive: -0.196,inactive: -0.031,–,inactive: 0.017,inactive: 0.118,inactive: -0.023,inactive: -0.195,–

# Single records (already shown). Order of values: log2 fold change [1] | log2 fold change [2] | log2 fold change [3] | log2 fold change [4] | log2 fold change (entinostat) | log2 fold change (vorinostat) | log2 fold change (citarinostat) | log2 fold change (silmitasertib) | log2 fold change [5] | log2 fold change [6] | log2 fold change (entospletinib)
# PNMT (UniProt P11086) in the list: inactive: 0.331 | inactive: -0.04 | – | – | inactive: -0.018 | – | – | – | – | – | –
# PLXNA3 (UniProt P51805) in the list: inactive: 0.003 | inactive: -0.213 | inactive: -0.087 | – | inactive: -0.036 | inactive: 0.072 | – | inactive: 0.049 | inactive: -0.209 | – | –
